Results published in publication PMC7522513.
Results are given in words; binding and its absence hold for the method and conditions named. Binding seen in cells or lysates may run through a third protein. Some results given as binding are weak or reduced against the parent protein; the word gives no strength.

Sequences of proteins named here, by UniProt entry; tags and fusion partners are left off.
UniProt O88763: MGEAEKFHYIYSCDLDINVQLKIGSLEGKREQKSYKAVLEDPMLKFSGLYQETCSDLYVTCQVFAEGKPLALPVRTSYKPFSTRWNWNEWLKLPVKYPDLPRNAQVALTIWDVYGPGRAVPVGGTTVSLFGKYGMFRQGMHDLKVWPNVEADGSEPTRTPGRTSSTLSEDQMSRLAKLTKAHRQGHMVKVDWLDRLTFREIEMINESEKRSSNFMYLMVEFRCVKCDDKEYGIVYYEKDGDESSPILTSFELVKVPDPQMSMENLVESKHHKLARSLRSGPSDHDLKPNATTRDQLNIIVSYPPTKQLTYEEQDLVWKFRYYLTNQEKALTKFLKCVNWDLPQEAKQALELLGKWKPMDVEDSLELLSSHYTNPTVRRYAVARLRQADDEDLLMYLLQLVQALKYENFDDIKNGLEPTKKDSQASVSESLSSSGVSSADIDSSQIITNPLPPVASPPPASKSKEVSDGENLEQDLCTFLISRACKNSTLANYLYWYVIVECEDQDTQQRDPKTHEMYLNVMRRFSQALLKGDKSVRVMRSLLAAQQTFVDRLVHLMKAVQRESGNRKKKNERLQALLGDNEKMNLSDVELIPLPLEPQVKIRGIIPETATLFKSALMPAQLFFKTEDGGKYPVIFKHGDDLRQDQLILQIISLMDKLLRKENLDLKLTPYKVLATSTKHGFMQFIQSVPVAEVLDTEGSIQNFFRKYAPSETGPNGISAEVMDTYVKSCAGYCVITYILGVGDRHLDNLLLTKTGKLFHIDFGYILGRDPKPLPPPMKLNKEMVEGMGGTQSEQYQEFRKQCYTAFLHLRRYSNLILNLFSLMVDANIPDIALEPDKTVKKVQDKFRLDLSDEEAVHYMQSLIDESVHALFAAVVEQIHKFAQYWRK
UniProt D4A4K3: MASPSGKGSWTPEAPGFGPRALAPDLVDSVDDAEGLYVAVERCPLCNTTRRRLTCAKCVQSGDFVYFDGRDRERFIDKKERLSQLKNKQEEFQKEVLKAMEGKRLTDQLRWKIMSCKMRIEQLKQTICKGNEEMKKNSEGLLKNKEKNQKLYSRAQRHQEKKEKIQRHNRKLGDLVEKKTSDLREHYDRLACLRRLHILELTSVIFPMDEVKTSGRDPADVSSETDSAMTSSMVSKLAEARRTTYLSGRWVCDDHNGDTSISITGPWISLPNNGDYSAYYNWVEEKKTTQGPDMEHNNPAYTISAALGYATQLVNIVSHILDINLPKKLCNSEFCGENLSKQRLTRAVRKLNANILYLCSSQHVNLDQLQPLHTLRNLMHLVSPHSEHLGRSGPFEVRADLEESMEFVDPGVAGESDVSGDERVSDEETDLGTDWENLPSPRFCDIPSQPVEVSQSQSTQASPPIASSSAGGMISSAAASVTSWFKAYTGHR
UniProt Q91XJ1: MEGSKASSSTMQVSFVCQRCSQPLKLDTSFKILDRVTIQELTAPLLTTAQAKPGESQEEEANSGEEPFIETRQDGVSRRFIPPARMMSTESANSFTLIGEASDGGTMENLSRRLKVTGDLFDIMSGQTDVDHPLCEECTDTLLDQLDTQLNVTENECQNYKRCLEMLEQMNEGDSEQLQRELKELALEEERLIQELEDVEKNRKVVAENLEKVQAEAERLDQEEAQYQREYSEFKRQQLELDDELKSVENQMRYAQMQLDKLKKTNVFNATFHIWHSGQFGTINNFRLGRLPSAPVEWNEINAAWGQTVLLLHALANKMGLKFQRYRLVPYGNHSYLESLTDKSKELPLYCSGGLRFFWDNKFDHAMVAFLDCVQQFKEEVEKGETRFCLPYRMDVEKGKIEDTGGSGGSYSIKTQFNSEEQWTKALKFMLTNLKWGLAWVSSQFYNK
UniProt P0C0R5: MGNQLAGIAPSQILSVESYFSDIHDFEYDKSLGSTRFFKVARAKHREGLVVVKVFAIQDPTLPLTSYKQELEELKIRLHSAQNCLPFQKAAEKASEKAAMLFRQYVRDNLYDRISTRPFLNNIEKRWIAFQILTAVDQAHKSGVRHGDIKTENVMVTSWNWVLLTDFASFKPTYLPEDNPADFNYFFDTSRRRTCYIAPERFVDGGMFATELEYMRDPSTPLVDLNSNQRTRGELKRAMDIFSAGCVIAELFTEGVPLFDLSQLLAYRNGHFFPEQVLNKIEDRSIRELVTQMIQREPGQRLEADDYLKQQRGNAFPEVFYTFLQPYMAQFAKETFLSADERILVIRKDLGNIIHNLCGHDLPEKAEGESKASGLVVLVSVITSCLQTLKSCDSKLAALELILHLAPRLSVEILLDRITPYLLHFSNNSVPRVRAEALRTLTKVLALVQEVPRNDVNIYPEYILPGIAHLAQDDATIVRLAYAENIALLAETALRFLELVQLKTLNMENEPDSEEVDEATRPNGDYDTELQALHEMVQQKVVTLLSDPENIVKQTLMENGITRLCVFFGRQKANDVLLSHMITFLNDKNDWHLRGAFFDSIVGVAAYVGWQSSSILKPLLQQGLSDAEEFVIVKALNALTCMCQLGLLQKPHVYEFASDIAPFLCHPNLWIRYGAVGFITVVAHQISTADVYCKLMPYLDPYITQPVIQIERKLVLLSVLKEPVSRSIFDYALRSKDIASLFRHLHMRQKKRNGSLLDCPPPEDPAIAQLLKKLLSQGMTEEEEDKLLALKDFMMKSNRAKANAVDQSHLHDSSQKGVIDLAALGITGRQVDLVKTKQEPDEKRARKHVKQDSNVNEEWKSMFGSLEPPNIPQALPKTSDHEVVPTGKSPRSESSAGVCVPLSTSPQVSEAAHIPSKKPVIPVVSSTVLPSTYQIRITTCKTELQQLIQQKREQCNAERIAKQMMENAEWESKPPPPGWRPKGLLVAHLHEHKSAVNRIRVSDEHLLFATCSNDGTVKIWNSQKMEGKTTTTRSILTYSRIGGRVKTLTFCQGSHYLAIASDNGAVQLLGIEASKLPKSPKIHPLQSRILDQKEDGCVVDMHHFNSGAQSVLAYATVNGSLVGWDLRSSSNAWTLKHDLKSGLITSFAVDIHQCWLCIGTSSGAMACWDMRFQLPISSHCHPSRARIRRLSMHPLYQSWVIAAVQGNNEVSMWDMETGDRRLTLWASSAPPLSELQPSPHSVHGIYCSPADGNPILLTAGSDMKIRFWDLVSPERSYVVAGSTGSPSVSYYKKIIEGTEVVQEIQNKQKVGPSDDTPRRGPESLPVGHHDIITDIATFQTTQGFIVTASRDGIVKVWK

Target: Vps34 (rat (endogenous in neonatal rat cardiomyocytes)) (UniProt O88763)
Assay: co-IP; endogenous Vps34 immunoprecipitated with a Vps34 antibody from NRCM lysates, immunoblot for Beclin1, Vps15, ATG14 and UVRAG; cells transfected with Adv-Ubc9 for 48 h, then hypoxic condition (OGD) for 6 h

Substance	binding
ATG14 (from UniProt D4A4K3 1-492)	binds
Beclin1 (from UniProt Q91XJ1 1-448)	binds
Vps15 (from UniProt P0C0R5 1-1358)	binds
